Our source for the binding values is paper PMC4854477.

Sequences of proteins named here, by UniProt entry; tags and fusion partners are left off. A change or cut given only in a name is not applied to a line headed by its entry.
UniProt Q92667: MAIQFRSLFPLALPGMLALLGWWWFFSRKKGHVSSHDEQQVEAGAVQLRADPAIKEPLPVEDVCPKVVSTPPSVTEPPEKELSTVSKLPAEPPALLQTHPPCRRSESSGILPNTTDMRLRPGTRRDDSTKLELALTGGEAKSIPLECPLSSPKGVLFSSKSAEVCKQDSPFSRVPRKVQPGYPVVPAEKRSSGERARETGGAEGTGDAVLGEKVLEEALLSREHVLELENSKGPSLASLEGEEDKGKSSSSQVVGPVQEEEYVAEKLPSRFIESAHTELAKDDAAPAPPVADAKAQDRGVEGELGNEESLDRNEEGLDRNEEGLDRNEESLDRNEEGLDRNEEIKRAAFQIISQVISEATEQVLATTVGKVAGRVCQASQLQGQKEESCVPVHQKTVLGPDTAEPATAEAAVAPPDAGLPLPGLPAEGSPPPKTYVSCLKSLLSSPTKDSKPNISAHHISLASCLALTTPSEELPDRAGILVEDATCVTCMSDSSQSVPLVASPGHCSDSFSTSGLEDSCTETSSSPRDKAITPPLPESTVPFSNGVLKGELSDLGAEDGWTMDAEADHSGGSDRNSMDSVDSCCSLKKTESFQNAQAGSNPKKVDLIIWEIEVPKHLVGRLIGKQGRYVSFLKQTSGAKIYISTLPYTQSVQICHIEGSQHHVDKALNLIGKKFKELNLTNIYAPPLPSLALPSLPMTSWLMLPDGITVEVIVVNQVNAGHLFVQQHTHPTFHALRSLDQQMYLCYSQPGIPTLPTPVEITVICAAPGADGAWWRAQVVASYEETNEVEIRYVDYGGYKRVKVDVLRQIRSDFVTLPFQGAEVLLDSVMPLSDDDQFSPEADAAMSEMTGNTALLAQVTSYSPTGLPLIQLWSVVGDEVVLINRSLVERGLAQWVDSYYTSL
UniProt P13861: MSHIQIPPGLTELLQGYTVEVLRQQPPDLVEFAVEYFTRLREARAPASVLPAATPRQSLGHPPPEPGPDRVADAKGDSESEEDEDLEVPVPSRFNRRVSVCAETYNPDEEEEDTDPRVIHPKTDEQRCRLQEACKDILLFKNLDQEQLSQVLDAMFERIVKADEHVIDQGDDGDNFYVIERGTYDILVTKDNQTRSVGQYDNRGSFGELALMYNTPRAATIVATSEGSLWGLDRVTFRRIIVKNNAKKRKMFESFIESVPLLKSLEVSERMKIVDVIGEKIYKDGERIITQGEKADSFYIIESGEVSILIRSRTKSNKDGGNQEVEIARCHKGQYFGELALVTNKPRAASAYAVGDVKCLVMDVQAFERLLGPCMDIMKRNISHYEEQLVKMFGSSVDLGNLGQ

No constants are given. Whether binding was seen depends on the method and setting. Binding seen in cells or lysates may run through a third protein.

This experiment concerns the target AKAP1Δ, EGFP fusion (UniProt Q92667). In words: co-IP; HT1080 cells co-transfected with PKA subunits and EGFP fusions of AKAP1 constructs; immunoprecipitation with an anti-EGFP antibody; co-precipitating PKA detected by western blot.

In the case of “WT RIIα, transfected (from UniProt P13861 1-404)”, the binding entry is reported as “no binding”.
